Values from PubChem BioAssay AID652248 (Drosophila RNAi Screening Center, 2013)

Purpose: 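Genes that govern switching among distinct shape types in fly blood cells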 (primary screen)
Cell system: cultured Drosophila hemocytes
Reagent: long dsRNA against Drosophila genes
Detection: 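Automated microscopy of stained actin, tubulin and nuclei; single-cell shape measures assigned to five reference shape types, giving a score per dsRNA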
Reading the numbers: elongated score: higher = more elongated bipolar cells; normal round score: higher = more normal rounded cells; teardrop score: higher = more small teardrop-shaped cells
Active means: 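Hits show a significant increase of elongated cells; higher rank given where elongated cells rose as other shape types fell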
The deposit covers 863 reagents; shown is a random part of them. 32 of them (3.7%) count as active. 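Calls also used reproducibility and a similarity ranking whose scores are not deposited; many active genes show only modest elongated scores.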 Reagents against one gene are numbered here. Not stated in the record: the amount of reagent, the time to read-out.

gene | reagent no. | elongated score, rep 1 | elongated score, rep 2 | normal round score, rep 1 | teardrop score, rep 1 | Outcome
trc (GeneID 40165) | 1 | 0.48 | – | -3.71 | 3.11 | inactive
trc (GeneID 40165) | 2 | 4.78 | – | -2.61 | 0.89 | inactive
pll (GeneID 43283) | 1 | 2.39 | – | -0.93 | -0.36 | active
pll (GeneID 43283) | 2 | 4.4 | – | -3.21 | 2.35 | active
Liprin-beta (GeneID 39524) | 1 | 2.82 | – | -2 | 1.72 | active
Liprin-beta (GeneID 39524) | 2 | 6.8 | – | -3.36 | 0.26 | active
Liprin-beta (GeneID 39524) | 3 | 0.66 | – | -0.43 | -0.04 | active
acj6 (GeneID 47080) | 1 | 1.74 | – | -5.82 | 6.66 | inactive
acj6 (GeneID 47080) | 2 | 1.07 | – | -1.9 | 2.21 | inactive
Pink1 (GeneID 31607) | 1 | -0.53 | 0.25 | -0.48 | 0.65 | inactive

Continued; the last 3 above are carried over.
gene | reagent no. | elongated score, rep 1 | elongated score, rep 2 | normal round score, rep 1 | teardrop score, rep 1 | Outcome
acj6 (GeneID 47080) | 1 | 1.74 | – | -5.82 | 6.66 | inactive
acj6 (GeneID 47080) | 2 | 1.07 | – | -1.9 | 2.21 | inactive
Pink1 (GeneID 31607) | 1 | -0.53 | 0.25 | -0.48 | 0.65 | inactive
sev (GeneID 32039) | 1 | 0.14 | – | -0.9 | 1.49 | inactive
Alp5 (GeneID 42482) | 1 | -0.41 | – | -0.05 | -0.26 | inactive
Alp5 (GeneID 42482) | 2 | 4.87 | – | -2.41 | 0.34 | inactive
Pez (GeneID 33882) | 1 | 0.22 | – | -0.59 | 1.07 | inactive
Pez (GeneID 33882) | 2 | 1.26 | – | -4.05 | 3.78 | inactive
CG32373 (GeneID 318000) | 1 | -0.53 | – | 0.56 | -0.23 | inactive
CG44153 (GeneID 34341) | 1 | -0.35 | – | -0.23 | 0.01 | inactive
CG44153 (GeneID 34341) | 2 | -0.53 | – | 1 | -0.85 | inactive
CG44153 (GeneID 34341) | 3 | -0.53 | – | -0.26 | 0.67 | inactive
CG44153 (GeneID 34341) | 4 | 0 | – | -0.37 | 0.26 | inactive
CG6380 (GeneID 35040) | 1 | 3.4 | – | -3.04 | 0.69 | inactive
Pak3 (GeneID 41995) | 1 | -0.53 | – | 0.77 | -0.79 | inactive
Pak3 (GeneID 41995) | 2 | -0.53 | – | -0.44 | 0.28 | inactive
CycB (GeneID 37618) | 1 | 1.21 | – | -1.69 | 1.06 | inactive
Gcn2 (GeneID 43709) | 1 | 0.21 | 0.97 | -0.81 | 1.15 | inactive
Pi4KIIIalpha (GeneID 31247) | 1 | -0.53 | – | -0.08 | 0.69 | inactive
CanA-14F (GeneID 8674098) | 1 | -0.46 | – | 0.15 | 0.11 | inactive
